From article PMC9170289
These are yes or no findings as the source states them, for the method shown. For some assays here: A result given as binding can be weak or reduced; the word gives no strength.

The chains behind the UniProt entries cited, without tags or fusion partners. Where a name states a change or a piece, a line headed by the entry shows the natural chain unless it says otherwise.
UniProt P53550: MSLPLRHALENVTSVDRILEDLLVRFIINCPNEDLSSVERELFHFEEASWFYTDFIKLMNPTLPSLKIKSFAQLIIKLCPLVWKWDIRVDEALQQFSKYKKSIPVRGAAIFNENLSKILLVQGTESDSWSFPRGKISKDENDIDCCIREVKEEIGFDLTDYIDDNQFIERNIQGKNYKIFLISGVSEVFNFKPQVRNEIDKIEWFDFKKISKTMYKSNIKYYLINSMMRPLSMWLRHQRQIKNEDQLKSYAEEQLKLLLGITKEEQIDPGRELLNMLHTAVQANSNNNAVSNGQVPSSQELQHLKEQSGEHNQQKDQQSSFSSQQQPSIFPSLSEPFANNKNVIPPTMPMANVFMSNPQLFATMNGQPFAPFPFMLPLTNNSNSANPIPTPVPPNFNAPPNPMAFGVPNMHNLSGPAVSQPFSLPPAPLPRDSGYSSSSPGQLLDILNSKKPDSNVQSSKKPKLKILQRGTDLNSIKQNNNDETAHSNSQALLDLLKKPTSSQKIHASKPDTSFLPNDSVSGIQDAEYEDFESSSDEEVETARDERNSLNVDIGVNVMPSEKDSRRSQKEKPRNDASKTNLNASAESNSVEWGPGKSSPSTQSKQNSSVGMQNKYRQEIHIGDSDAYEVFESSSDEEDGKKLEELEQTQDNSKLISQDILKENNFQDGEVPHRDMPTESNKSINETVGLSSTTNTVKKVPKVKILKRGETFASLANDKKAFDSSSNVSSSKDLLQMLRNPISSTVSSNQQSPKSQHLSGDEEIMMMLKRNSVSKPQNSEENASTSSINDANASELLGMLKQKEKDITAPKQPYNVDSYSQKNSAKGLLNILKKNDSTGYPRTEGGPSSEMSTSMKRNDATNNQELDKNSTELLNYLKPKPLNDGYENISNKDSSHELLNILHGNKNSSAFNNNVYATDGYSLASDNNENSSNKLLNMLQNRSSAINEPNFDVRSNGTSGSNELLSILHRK

Experiments:
Assay in all cases: two-hybrid; GAL4(DB) fusion and GAL4(AD) fusion cotransformed into the wild-type tester strain GGY1::171; X-Gal colony colour on SSX plates, 30°C; pairs said to be unaffected were also tested in upf1Δ, pat1Δ, scd6Δ, edc3Δ or dcp2-N245 derivatives
[1] = target: Dcp2 ID (inhibitory element IE deleted) (S. cerevisiae) (UniProt P53550)
[2] = target: Dcp2 E3D-LD9-3 (S. cerevisiae) (UniProt P53550)
[3] = target: Dcp2 E3D1-LD9-2 (S. cerevisiae) (UniProt P53550)
[4] = target: Dcp2 U1D1-U1D2 (both Upf1-binding motifs deleted) (S. cerevisiae) (UniProt P53550)
[5] = target: Dcp2 LD1-4 (leucine-rich motifs L1 to L4 deleted) (S. cerevisiae) (UniProt P53550)
[6] = target: Dcp2 E3D1-LD9-3 (S. cerevisiae) (UniProt P53550)
[7] = target: Dcp2 LD9-3 (leucine-rich motifs L9 to L3 deleted) (S. cerevisiae) (UniProt P53550)
[8] = target: Dcp2 E3D (Edc3-binding motif E3 deleted) (S. cerevisiae) (UniProt P53550)
[9] = target: Dcp2 LD9-6 (leucine-rich motifs L9 to L6 deleted) (S. cerevisiae) (UniProt P53550)
[10] = target: Dcp2 LD9-4 (leucine-rich motifs L9 to L4 deleted) (S. cerevisiae) (UniProt P53550)
[11] = target: Dcp2 E3D-LD9-2 (S. cerevisiae) (UniProt P53550)

Measured: binding

B1: Pat1 (protein, UniProt P25644 1-796)
chain: MSFFGLENSGNARDGPLDFEESYKGYGEHELEENDYLNDETFGDNVQVGTDFDFGNPHSSGSSGNAIGGNGVGATARSYVAATAEGISGPRTDGTAAAGPLDLKPMESLWSTAPPPAMAPSPQSTMAPAPAPQQMAPLQPILSMQDLERQQRQMQQQFMNFHAMGHPQGLPQGPPQQQFPMQPASGQPGPSQFAPPPPPPGVNVNMNQMPMGPVQVPVQASPSPIGMSNTPSPGPVVGATKMPLQSGRRSKRDLSPEEQRRLQIRHAKVEKILKYSGLMTPRDKDFITRYQLSQIVTEDPYNEDFYFQVYKIIQRGGITSESNKGLIARAYLEHSGHRLGGRYKRTDIALQRMQSQVEKAVTVAKERPSKLKDQQAAAGNSSQDNKQANTVLGKISSTLNSKNPRRQLQIPRQQPSDPDALKDVTDSLTNVDLASSGSSSTGSSAAAVASKQRRRSSYAFNNGNGATNLNKSGGKKFILELIETVYEEILDLEANLRNGQQTDSTAMWEALHIDDSSYDVNPFISMLSFDKGIKIMPRIFNFLDKQQKLKILQKIFNELSHLQIIILSSYKTTPKPTLTQLKKVDLFQMIILKIIVSFLSNNSNFIEIMGLLLQLIRNNNVSFLTTSKIGLNLITILISRAALIKQDSSRSNILSSPEISTWNEIYDKLFTSLESKIQLIFPPREYNDHIMRLQNDKFMDEAYIWQFLASLALSGKLNHQRIIIDEVRDEIFATINEAETLQKKEKELSVLPQRSQELDTELKSIIYNKEKLYQDLNLFLNVMGLVYRDGEISELK
binds: [1] | [4] | [5] | [8] | [9]
binds weakly: [2] | [6] | [7] | [10]
no binding: [3] | [11]
